Results are given in words; binding and its absence hold for the method and conditions named. Binding seen in cells or lysates may run through a third protein. A yes stands for co-enrichment or nearness to the bait. Other partners may have been found. Sequences can lack the tags named with a protein.
Target: T1, 3×FLAG‐tagged TGB1 (TGB1–3×Flag), triple gene block 1 protein of barley stripe mosaic virus (barley stripe mosaic virus) (UniProt P04867)
T1 sequence: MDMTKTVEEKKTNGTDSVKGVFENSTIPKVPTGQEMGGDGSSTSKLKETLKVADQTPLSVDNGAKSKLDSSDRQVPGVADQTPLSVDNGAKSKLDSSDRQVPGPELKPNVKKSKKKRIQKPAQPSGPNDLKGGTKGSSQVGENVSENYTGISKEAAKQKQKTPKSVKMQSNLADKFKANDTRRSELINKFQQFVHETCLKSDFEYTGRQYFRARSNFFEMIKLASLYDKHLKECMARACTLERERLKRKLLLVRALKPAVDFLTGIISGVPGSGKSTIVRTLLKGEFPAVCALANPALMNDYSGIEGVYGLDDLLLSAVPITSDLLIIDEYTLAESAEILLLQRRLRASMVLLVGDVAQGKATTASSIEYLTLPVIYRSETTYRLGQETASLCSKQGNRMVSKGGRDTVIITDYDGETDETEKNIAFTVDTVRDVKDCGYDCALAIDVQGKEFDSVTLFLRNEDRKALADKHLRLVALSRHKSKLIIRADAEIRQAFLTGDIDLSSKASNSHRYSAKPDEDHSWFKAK
Experiment: affinity purification with mass spectrometry; TGB1–3×Flag as bait, transiently expressed in N. benthamiana leaves; immunoprecipitation, then liquid chromatography–tandem mass spectrometry

## Ariadne‐like protein 8 (ARI8), endogenous in N. benthamiana (enzyme)
  binding: binds

Source: publication PMC12667515
